One assay addresses T1, FLAG-Rsph3b (mouse) (UniProt Q9DA80).
T1 sequence: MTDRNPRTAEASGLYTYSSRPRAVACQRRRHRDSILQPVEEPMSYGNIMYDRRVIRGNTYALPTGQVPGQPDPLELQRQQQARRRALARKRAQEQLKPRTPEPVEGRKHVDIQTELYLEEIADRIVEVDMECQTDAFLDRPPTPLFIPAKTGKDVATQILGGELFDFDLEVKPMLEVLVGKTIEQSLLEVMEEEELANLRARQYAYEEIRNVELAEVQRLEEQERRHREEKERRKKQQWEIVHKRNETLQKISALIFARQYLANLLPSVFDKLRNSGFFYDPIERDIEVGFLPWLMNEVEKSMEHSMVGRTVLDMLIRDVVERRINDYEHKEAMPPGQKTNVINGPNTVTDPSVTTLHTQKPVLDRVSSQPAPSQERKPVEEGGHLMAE
Kind of assay: co-IP; FLAG-Rsph3b co-transfected with GFP-AK8 or GFP in HEK293T for 48 h; anti-FLAG beads, 3 h at 4 °C; low-salt buffer (20 mM Tris-HCl pH 7.5, 100 mM KCl, 0.1% NP-40); eluted with FLAG peptide; blots with anti-GFP and anti-FLAG.

The next assay has as its target T2, Rsph4a (mouse, UniProt Q8BYM7 1-716).
T2 construct: Rsph4a (radial spoke head protein 4 homolog A), mouse, NM_001162957; Two copies stand in each RS head
T2 sequence: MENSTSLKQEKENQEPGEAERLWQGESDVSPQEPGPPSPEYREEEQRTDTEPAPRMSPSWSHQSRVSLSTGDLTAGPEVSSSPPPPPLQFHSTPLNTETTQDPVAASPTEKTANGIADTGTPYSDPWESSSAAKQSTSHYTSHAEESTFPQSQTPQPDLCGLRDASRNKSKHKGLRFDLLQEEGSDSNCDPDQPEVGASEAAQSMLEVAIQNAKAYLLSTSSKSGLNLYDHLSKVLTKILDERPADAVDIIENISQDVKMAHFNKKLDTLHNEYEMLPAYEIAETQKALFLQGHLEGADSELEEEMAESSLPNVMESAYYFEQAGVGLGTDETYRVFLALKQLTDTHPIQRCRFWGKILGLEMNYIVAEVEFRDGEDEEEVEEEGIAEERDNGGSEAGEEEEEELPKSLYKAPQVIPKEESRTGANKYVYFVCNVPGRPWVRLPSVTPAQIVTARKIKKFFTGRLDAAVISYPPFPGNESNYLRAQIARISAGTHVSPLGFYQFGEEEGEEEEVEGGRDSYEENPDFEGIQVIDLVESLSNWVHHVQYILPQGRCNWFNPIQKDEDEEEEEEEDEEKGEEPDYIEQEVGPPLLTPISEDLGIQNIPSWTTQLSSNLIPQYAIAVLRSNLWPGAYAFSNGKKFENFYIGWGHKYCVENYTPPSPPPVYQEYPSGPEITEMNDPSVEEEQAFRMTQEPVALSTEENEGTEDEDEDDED
As to the kind of experiment: cryo-EM structure; RS head-neck complex co-expressed in HEK293F, purified by Strep-Tactin then anti-FLAG beads, cross-linked by GraFix (0-0.1% glutaraldehyde, 10-40% glycerol, 4 °C); monomer map 3.28 Å, dimer map 3.57 Å; both purified.

Results are given in words; binding and its absence hold for the method and conditions named. For some assays here: Binding seen in cells or lysates may run through a third protein. Some binding calls cover weakened binding; strength is not graded here. Sequences can lack the tags named with a protein.

B1: GFP-AK8 (protein, UniProt Q32M07 1-479)
chain: MDATTAPHRIPPEMPQYGEDYYIFEMMQNMLEQLLIHQPEDPISFMITHLRRNNDNVPKVVILGPPASGKTTIAMWLCKHLNSNLITKESLLEREFSRLSVEAKSYYQVYKKIPNSILVSLVQERLNEDDCLRKGWILDGIPERREQALMIQTLGLAPKHVIVLNAPDTVLIERNVGKRIDPVTGEIYHTTFDWPPEPEIQNRLRQPEGISEIETAKKLLEYHRHIIRILPSYPKILKTISSDQPCVDVFYQALTYVQSGHRCNAPFTPKVLLCGPLGSGKRLQATLLAQKYGLVNISCGQLLKEAVAAKSSFGELIQPFFEKRMTVPDSIITKVLADRMEQQDCIQKGWVLHGFPRDLDQARMLNSMGYNPNRVFFLSVPLDSILERLTLRRTDPVTGERFHLMYKPPPTIEVQVRLLQNPKDSEEYIKLQTDLFYRNSGDLEQYYDRAIIVNGDQDPYTVFEYIESGIINPLPRKVT
B1: the binding entry with FLAG-Rsph3b (mouse) is given as “binds”.

B2: Strep-Tag II-tagged Rsph1 (protein, UniProt Q8VIG3 1-301)
chain: MSDLGSEELEEEGENDLGEYEGERNEVGERHGHGKARLPNGDTYEGSYEFGKRHGQGTYKFKNGARYTGDYVKNKKHGQGTFIYPDGSRYEGEWADDQRHGQGVYYYVNNDTYTGEWFNHQRHGQGTYLYAETGSKYVGTWVHGQQEGAAELIHLNHRYQGKFMNKNPVGPGKYVFDIGCEQHGEYRLTDTERGEEEEEEETLVNIVPKWKALNITELALWTPTLSEEQPPPEGQGQEEPQGLTGVGDPSEDIQAEGFEGELEPRGADEDVDTFRQESQENSYDIDQGNLNFDEEPSDLQD
B2: the binding entry with Rsph4a is recorded as “binds”.

The record behind these values is publication PMC10774353, “Multi-scale structures of the mammalian radial spoke and divergence of axonemal complexes in ependymal cilia” (Nature Communications, 2024).
